Hit rate of the full screen: of about 580,000 compounds, about 6,100 (1.1%) were called active. Inconclusive means that the source gave no clear call. Such entries were picked first, then a sample of the others. Calls come from the whole dose curve; as a rule, active = well fitted inhibition curve with a large enough effect; inconclusive = small, poorly fitted or top-dose-only effect, or another doubt; inactive = no such curve, though single readings can be large or run the other way. Potencies of inconclusive entries are doubtful fits and often do not repeat.
molecular target: Polyunsaturated fatty acid lipoxygenase ALOX12 (Homo sapiens) (UniProt P18054); experiment: Primary qHTS assay for inhibitors of human arachidonate 12S-lipoxygenase (ALOX12): Round 2; conditions: purified 12hLO, xylenol orange hydroperoxide absorbance; activity change, negative = inhibition: at 108 µM (top of the series) unless noted
In short: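 Purified human 12hLO (150 nM final) in 25 mM Hepes, 0.01% Triton X-100, pH 7.0 was preincubated 15 min at room temperature with compound. Then 40 uM arachidonic acid was added, 30 min. Hydroperoxide was read by Fe-XO absorbance ratio 573/405 nm.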
% is set by controls: 0 for no effect and ±100 for the full control effect; potency is the fitted concentration of half-maximal effect.

Sequences of proteins named here, by UniProt entry; tags and fusion partners are left off. A change or cut given only in a name is not applied to a line headed by its entry.
UniProt P18054: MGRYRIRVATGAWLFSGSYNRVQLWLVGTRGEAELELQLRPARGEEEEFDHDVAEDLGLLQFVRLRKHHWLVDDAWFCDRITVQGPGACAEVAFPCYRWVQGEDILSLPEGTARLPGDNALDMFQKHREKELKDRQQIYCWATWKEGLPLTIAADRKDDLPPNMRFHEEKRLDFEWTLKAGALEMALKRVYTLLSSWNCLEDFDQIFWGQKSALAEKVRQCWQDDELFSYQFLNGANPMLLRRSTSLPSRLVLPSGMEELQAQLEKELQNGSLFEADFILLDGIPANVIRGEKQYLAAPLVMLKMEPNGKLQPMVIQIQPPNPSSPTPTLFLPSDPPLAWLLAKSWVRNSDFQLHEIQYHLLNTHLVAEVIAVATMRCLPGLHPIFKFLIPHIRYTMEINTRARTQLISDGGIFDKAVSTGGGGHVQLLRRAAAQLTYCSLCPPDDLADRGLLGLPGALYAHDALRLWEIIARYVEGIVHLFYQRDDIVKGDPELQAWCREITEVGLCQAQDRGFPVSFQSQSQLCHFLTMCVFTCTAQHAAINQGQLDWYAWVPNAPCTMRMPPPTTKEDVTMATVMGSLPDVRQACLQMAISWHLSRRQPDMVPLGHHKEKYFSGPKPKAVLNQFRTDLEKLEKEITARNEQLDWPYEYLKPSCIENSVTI

SMILES | Potency | activity change, negative = inhibition
COc1ccc(CCN2CCC(CN(C)C(=O)NCc3ccccc3)CC2)cc1 | inconclusive: 28.2 µM [inhibitor, full curve] | –
Cc1cccc(Cc2c(C)nc(N3CCN(Cc4ccccc4)CC3)[nH]c2=O)c1 | inconclusive: 100 µM [inhibitor, single point] | –
COCCNC(=O)C1(C)CCCN(C(=O)c2ccc3c(c2)OCO3)C1 (stereo not given) | inconclusive: 126 µM [inhibitor, partial curve, poor fit] | –
Cc1ccc(OCC(=O)N/N=C2/SCC(=O)N2Cc2ccccc2)cc1 | – | inactive: -6.97%
O=C(Nc1ccccc1-c1ccccc1)c1cc(F)cc(F)c1 | inconclusive: 89.1 µM [inhibitor, single point] | –
CCCCn1nnnc1SCC(=O)Nc1ccc(F)cc1 | inconclusive: 112 µM [inhibitor, partial curve, poor fit] | –
COC(=O)c1ccc(C)c(NS(=O)(=O)c2ccc3ccccc3c2)c1 | – | inactive: 10.5%
Cc1nc2ccc(NC(=O)c3ccc(Cl)c(NC(=O)c4cccs4)c3)cc2s1 | – | inactive: 6.32%
CC(=O)Nc1cc(-c2cccc(C)c2)cn2c(-c3ccc(S(C)(=O)=O)cc3)cnc12 | – | inactive: -14.5%
Cc1ccccc1/C=C1\Oc2cc(OS(C)(=O)=O)ccc2C1=O | inconclusive: 112 µM [inhibitor, partial curve, poor fit] | –
N#C/C(=C\c1ccc(O)c(Cl)c1)c1nc2ccccc2[nH]1 | – | inactive: -4.2%
COCCCNC1=C(Cl)C(=O)c2ccccc2C1=O | – | inactive: -36.2%
O=C1N/C(=N\c2ccccn2)SC1Cc1ccc(Cl)cc1 (stereo not given) | inconclusive: 1.58 µM [inhibitor, full curve, poor fit] | –
O=C(NC(=S)Nc1ccc(N2CCCCC2)c(Cl)c1)c1cccs1 | inconclusive: 7.94 µM [inhibitor, full curve] | –
Nc1n[nH]c(N)c1N=Nc1ccccc1F | inconclusive: 5.01 µM [inhibitor, full curve, poor fit] | –
O=C(/C=C/c1c(Cl)cccc1Cl)c1ccc(O)cc1 | inconclusive: 0.178 µM [inhibitor, full curve, poor fit] | –
Cc1ccc(NC(=O)Cn2c(O)c(N=NC(=O)c3cc4ccccc4cc3O)c3ccccc32)cc1 | inconclusive: 50.1 µM [inhibitor, partial curve, poor fit] | –
COC(=O)/C=C(/SCc1ccccc1)c1ccccc1 | – | inconclusive: -31.4% [inhibitor]
Cc1cccc(Oc2ccccc2N)c1 | inconclusive: 6.31 µM [inhibitor, full curve] | –
O=C(OCc1ccccc1)N1CCC2CC1c1cc(N3CCN(S(=O)(=O)c4cccc5ccccc45)CC3)ccc12 (stereo not given) | inconclusive: 112 µM [inhibitor, single point] | –
Cc1ccnc2nc(C(=O)OCC(=O)N(Cc3ccccc3)C(C)C)nn12 | – | inconclusive: -38.6% [inhibitor]
CCOC(=O)c1cc2c(=O)n3ccccc3nc2n(Cc2ccco2)c1=NC(=O)c1ccc(Br)cc1 | inconclusive: 2.82 µM [inhibitor, full curve, poor fit] | –
CCN(CC)c1ccc(CC(=O)NC(C)Cc2ccccc2)cc1 (stereo not given) | – | inactive: 0.877%
CC1CN(C(=O)c2cc(S(=O)(=O)N3CCN(c4ccccc4)CC3)ccc2Cl)CC(C)O1 (stereo not given) | – | inactive: -18.8%

SMILES | Potency | activity change, negative = inhibition
COc1ccccc1C(=O)N1CCC(N2C[C@H](O)C[C@H]2C(=O)NC2CCCCC2)CC1 | – | inactive: -1.64%
CCN1CCN(CC(=O)Nc2ccc(-c3cccc4c(=O)cc(N5CCOCC5)oc34)c3sc4ccccc4c23)CC1 | inconclusive: 4.85 µM [inhibitor, partial curve, poor fit] | –
CCCCn1c(SCC(N)=O)nc2c1c(=O)[nH]c(=O)n2C | inconclusive: 44.7 µM [inhibitor, partial curve, poor fit] | –
Cc1cc(C)cc(NC(=O)CCCc2nc3ccccc3o2)c1 | inconclusive: 31.6 µM [inhibitor, single point] | –
OC(COCc1cccs1)CN1CCN(c2ccccc2Cl)CC1 (stereo not given) | inconclusive: 56.2 µM [inhibitor, partial curve, poor fit] | –
Cc1ccc(N(C(=O)c2cccs2)C2C=CS(=O)(=O)C2)cc1C (stereo not given) | – | inactive: -0.59%
O=C(/C=C\c1ccco1)c1ccc(NC(=O)c2ccco2)cc1 | inconclusive: 4.47 µM [inhibitor, full curve, poor fit] | –
O=C(CSc1nnc(Cc2cccs2)n1-c1ccccc1)NCc1ccc2c(c1)OCO2 | inconclusive: 56.2 µM [inhibitor, partial curve, poor fit] | –
CCOC(=O)C1=C(COC(=O)Cc2ccc(Cl)cc2)NC(=O)NC1C (stereo not given) | inconclusive: 100 µM [inhibitor, single point] | –
CC1(C)Cc2c(ccc3ccccc23)/C(=C/C(=O)N2CCCCC2)N1 | inconclusive: 39.8 µM [inhibitor, partial curve, poor fit] | –
COc1ccc(CN2CC[C@H]3C=CCc4cccc(c43)C2)cc1 | – | inconclusive: -31.4% [inhibitor]
COc1ccc(Cl)cc1C(=O)N(Cc1nc(-c2cccc(C)c2)no1)C(C)C | inconclusive: 79.4 µM [inhibitor, single point] | –
CC1CN(Cc2ccc(Cl)cc2Cl)CC(C)O1 (stereo not given) | active: 0.631 µM | –
Oc1ccc(N=Cc2cccc(OCc3ccccc3)c2)cc1 | – | inactive: 66.9%
CCN(Cc1ccccc1)C(=O)CN1C(=O)NC(CC)(c2ccc(F)cc2)C1=O (stereo not given) | – | inactive: -15.2%
Cc1ccc2ccc(C(Nc3ccccc3)c3ccc(C(C)C)cc3)c(O)c2n1 (stereo not given) | – | inactive: -26.8%
Cc1ccc(C(=O)N2CCC(N3C(=O)C(OCC4CC4)C34CCOCC4)CC2)cn1 (stereo not given) | – | inactive: 50.4%
C/C(=N\Nc1cccc([N+](=O)[O-])c1)c1ccccc1O | inconclusive: 50.1 µM [inhibitor, partial curve, poor fit] | –
O=C1NCc2ccccc2CC12CCN(CCCc1ccccc1)C2 (stereo not given) | – | inactive: 4.98% [at 6.33 µM]
Cc1ccccc1-c1nc(SCC(=O)NCc2ccc(F)cc2)c2c(=O)n(C)c(=O)n(C)c2n1 | inconclusive: 63.1 µM [inhibitor, partial curve, poor fit] | –
CCn1c(C(C)NS(=O)(=O)c2ccc(Cl)cc2)n[nH]c1=S (stereo not given) | inconclusive: 39.8 µM [inhibitor, partial curve, poor fit] | –
NC(=O)C1CCCN1S(=O)(=O)c1ccc2ccccc2c1 (stereo not given) | – | inactive: -12.6%
CCOC(=O)/C=C1/CCC(C=O)=C1N1CCOCC1 | inconclusive: 44.7 µM [inhibitor, full curve, poor fit] | –
O=C(Cc1cccc2ccccc12)NCCc1cccc2cccnc12 | – | inactive: 18.3%

Entries of single compounds, looked up by structure:
CCOC(=O)C1=C(COC(=O)Cc2ccc(Cl)cc2)NC(=O)NC1C (stereo not given) as listed: Potency: inconclusive: 100 µM [inhibitor, single point]
O=C1NCc2ccccc2CC12CCN(CCCc1ccccc1)C2 (stereo not given) as listed: activity change, negative = inhibition: inactive: 4.98% [at 6.33 µM]
O=C(CSc1nnc(Cc2cccs2)n1-c1ccccc1)NCc1ccc2c(c1)OCO2 as listed: Potency: inconclusive: 56.2 µM [inhibitor, partial curve, poor fit]

Continued.

SMILES | Potency | activity change, negative = inhibition
CN(C)N1C(=O)CC(c2c(F)cccc2Cl)C2=C1CC(C)(C)CC2=O (stereo not given) | – | inactive: 31.3%
Cc1cn2c(=O)cc(COc3cccc(NC(=O)c4ccc(C(C)(C)C)cc4)c3)nc2s1 | – | inactive: -13.1%
O=C(NCc1ccccc1)C1CCN(c2nc(-c3ccccc3)nc3c2CCC3)CC1 | inconclusive: 112 µM [inhibitor, single point] | –
O=C(CCC(=O)N1CCN(S(=O)(=O)c2ccccc2)CC1)c1cccs1 | inconclusive: 6.31 µM [inhibitor, full curve, poor fit] | –
CC(C(=O)N1CCOCC1)N1C(=O)c2cccc3cccc(c23)C1=O (stereo not given) | – | inactive: -12%
CCNC(=O)CCc1c(C)nn(-c2ccc(F)cc2)c1Oc1ccccc1C | – | inactive: 22.6%
Cc1c(N2C(=O)C3C4C=CC(C5CC45)C3C2=O)c(=O)n(-c2ccccc2)n1C (stereo not given) | inconclusive: 141 µM [inhibitor, single point] | –
CCOc1ccc(NC(=O)c2c(C)nn(-c3ccc(F)cc3)c2-n2cccc2)cc1 | inconclusive: 89.1 µM [inhibitor, partial curve, poor fit] | –
CC1(C)Cc2c(sc(NC(=O)C(=O)NCCCN3CCOCC3)c2C#N)CO1 | – | inactive: 4.48%
C=CCc1ccccc1OCCSc1nc(-c2cccs2)nc2cc(=O)[nH]n12 | – | inactive: -16.5%
C=CCNC(=O)c1onc(CSc2cccc(C)c2)c1C(=O)O | inconclusive: 89.1 µM [inhibitor, partial curve, poor fit] | –
CSc1ccc(C(=O)C2CCCN(C(=O)Cc3nonc3C)C2)cc1 (stereo not given) | – | inactive: -15.6%
CCc1csc(CNC2CCC3(CCNCC3)CC2)n1 | inconclusive: 5.01 µM [inhibitor, partial curve, poor fit] | –
O=C1CC(c2cccc(Cl)c2)Cc2nc(N3CCOCC3)ncc21 (stereo not given) | – | inactive: 2.01%
CC(=NNc1ccc2ccccc2n1)c1ccccc1O | inconclusive: 35.5 µM [inhibitor, single point] | –
CCc1nc2c(OCCC3CCCCC3)cccn2c1N(C)C(=O)c1cccs1 | inconclusive: 89.1 µM [inhibitor, single point] | –
O=C(O)c1cnc(/C=C/c2cc(Cl)c3c(c2)OCO3)s1 | inconclusive: 7.94 µM [inhibitor, full curve] | –
CCc1c(C)sc2c1CCN(Cc1ccccc1)C2c1ccccc1 (stereo not given) | – | inactive: 17.6%
FC(F)(F)c1ccc(Cl)c(N/N=C/c2ccc(-c3ccccc3)cc2)c1 | inconclusive: 50.1 µM [inhibitor, partial curve, poor fit] | –
N#CC(=C(N)Sc1ccc(N)cc1)c1ccccc1C(F)(F)F | inconclusive: 34.3 µM [inhibitor, single point] | –
COC(=O)c1ccc2c(=O)n(C3CCCCC3)c(SCC#N)nc2c1 | inconclusive: 0.224 µM [inhibitor, full curve, poor fit] | –
Fc1ccc2[nH]c3c(NCc4ccccc4)ncnc3c2c1 | inconclusive: 44.7 µM [inhibitor, partial curve, poor fit] | –

— PubChem BioAssay AID1671190 (National Center for Advancing Translational Sciences (NCATS), 2021)
